Laboratory results as given in paper PMC7180767, “Influence of Selected Antidepressants on the Ciliated Protozoan Spirostomum ambiguum: Toxicity, Bioaccumulation, and Biotransformation Products” (Molecules, 2020).
Converted amounts (≈) assume the structure as drawn.

Legend:
[1] = test system: Spirostomum ambiguum; assay: microbe, parasite or virus in culture
[2] = test system: Daphnia magna; details: cited from earlier work

With `CNCCC(Oc1ccc(C(F)(F)F)cc1)c1ccccc1` (stereo not shown) [Fluoxetine, fluoxetine] the EC50 ([1]; 24 h, 1 d, pH = 6.0) was 4.75 ± 0.23 µg/mL (≈ 15.4 µM), the EC50 ([1]; 24 h, 1 d, pH = 6.5) was 2.32 ± 0.24 µg/mL (≈ 7.5 µM) and the EC50 ([1]; 24 h, 1 d, pH = 7.4) was 1.68 ± 0.19 µg/mL (≈ 5.43 µM). For the same molecule, the EC50 ([1]; 48 h, 2 d, pH = 6.0) was 2.88 ± 0.38 µg/mL (≈ 9.31 µM), the EC50 ([1]; 48 h, 2 d, pH = 6.5) was 1.49 ± 0.14 µg/mL (≈ 4.82 µM) and the EC50 ([1]; 48 h, 2 d, pH = 7.4) was 1.39 ± 0.13 µg/mL (≈ 4.49 µM). For the same molecule, the EC50 ([1]; 168 h, 7 d, pH = 6.0) was 1.94 ± 0.53 µg/mL (≈ 6.27 µM), the EC50 ([1]; 168 h, 7 d, pH = 6.5) was 0.96 ± 0.16 µg/mL (≈ 3.1 µM) and the EC50 ([1]; 168 h, 7 d, pH = 7.4) was 1.05 ± 0.22 µg/mL (≈ 3.39 µM).
In the case of `CN1CCN2c3ccccc3Cc3ccccc3C2C1` (stereo not shown) [Mianserin, mianserin], the “48-h EC50” value [2] is given as 7.81 µg/mL.
